Data source: PubChem BioAssay AID686938 (Drosophila RNAi Screening Center, 2013)

Test: 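Knock-downs reducing store-operated calcium influx in Drosophila cells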 (primary screen)
Cells: Drosophila S2R+ cells
Knock-down reagent: long dsRNA against Drosophila genes, about 0.25 µg dsRNA per well, roughly 10,000 cells
Duration: 5 days of knock-down before the calcium assay
Conditions: thapsigargin (SERCA pump blocker) to empty calcium stores; entry signal taken 4 min after adding it
Measured: 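Duplicate raw fluo-4 intensities per well from a plate reader, at rest and four minutes after thapsigargin emptied calcium stores; entry-to-rest ratio filled for only some wells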
Scale: calcium entry signal: higher = stronger calcium signal after store depletion; resting calcium signal: higher = higher resting calcium signal
Units: calcium entry signal in fluorescence units; resting calcium signal in fluorescence units
Call rule: 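Hit if the duplicate-averaged plate z-score for entry over resting signal is under −3; wells with weak total dye signal (Fmax z < −2) or more than 5 off-targets removed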
Meaning of the calls: active = strongly reduced calcium entry; inactive = no strong reduction
In all, the deposit lists about 23,000 reagents; below is a random part of those with a known target gene and a result. Over the whole deposit, 75 (0.33%) were called active. 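Raw plate signals without normalisation; calls rest on plate z-scores that were not deposited; ratio present for only 364 wells.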 No sequences are given here. Not stated in the record: the dose of the treatment.

Which result is listed for armi (armitage) [DRSC08193]?
calcium entry signal, replicate 1: 2.97e7; calcium entry signal, replicate 2: 4.34e7; resting calcium signal, replicate 1: 1.56e7; resting calcium signal, replicate 2: 1.82e7; outcome: inactive

With CG7568 [DRSC16259], what does the deposit list?
calcium entry signal, replicate 1: 3.24e7; calcium entry signal, replicate 2: 5.62e7; resting calcium signal, replicate 1: 1.70e7; resting calcium signal, replicate 2: 2.08e7; outcome: inactive

What is on record for AMPKalpha (AMP-activated protein kinase alpha subunit) [DRSC18714]?
calcium entry signal, replicate 1: 4.39e7; calcium entry signal, replicate 2: 5.43e7; resting calcium signal, replicate 1: 2.19e7; resting calcium signal, replicate 2: 2.59e7; outcome: inactive

For Takl1 (Tak1-like 1) [DRSC13443], what does the deposit list?
calcium entry signal, replicate 1: 3.64e7; calcium entry signal, replicate 2: 2.80e7; resting calcium signal, replicate 1: 1.84e7; resting calcium signal, replicate 2: 1.39e7; outcome: inactive

For Mi-2 [DRSC11222], how do the results read?
calcium entry signal, replicate 1: 2.69e7; calcium entry signal, replicate 2: 3.20e7; resting calcium signal, replicate 1: 1.30e7; resting calcium signal, replicate 2: 1.47e7; outcome: inactive

With CG6472 [DRSC06989], what was measured?
calcium entry signal, replicate 1: 3.62e7; calcium entry signal, replicate 2: 5.22e7; resting calcium signal, replicate 1: 1.59e7; resting calcium signal, replicate 2: 2.32e7; outcome: inactive

What did the screen give for CG10031 [DRSC00286]?
calcium entry signal, replicate 1: 3.75e7; calcium entry signal, replicate 2: 3.13e7; resting calcium signal, replicate 1: 1.77e7; resting calcium signal, replicate 2: 1.48e7; outcome: inactive

For TTLL1A (Tubulin tyrosine ligase-like 1A) [DRSC20121], what was measured?
calcium entry signal, replicate 1: 3.21e7; calcium entry signal, replicate 2: 4.08e7; resting calcium signal, replicate 1: 1.45e7; resting calcium signal, replicate 2: 1.63e7; outcome: inactive

What is on record for CG6805 [DRSC07011]?
calcium entry signal, replicate 1: 4.54e7; calcium entry signal, replicate 2: 4.30e7; resting calcium signal, replicate 1: 2.07e7; resting calcium signal, replicate 2: 2.02e7; outcome: inactive

How did the screen score CG9018 [DRSC08618]?
calcium entry signal, replicate 1: 3.19e7; calcium entry signal, replicate 2: 4.33e7; resting calcium signal, replicate 1: 1.65e7; resting calcium signal, replicate 2: 1.75e7; outcome: inactive

Which result is listed for 140up (upstream of RpII140) [DRSC12634]?
calcium entry signal, replicate 1: 2.98e7; calcium entry signal, replicate 2: 3.50e7; resting calcium signal, replicate 1: 1.27e7; resting calcium signal, replicate 2: 1.62e7; outcome: inactive

For Ost48 (Oligosaccharyltransferase 48kD subunit) [DRSC18693], how do the results read?
calcium entry signal, replicate 1: 3.14e7; calcium entry signal, replicate 2: 3.74e7; resting calcium signal, replicate 1: 1.63e7; resting calcium signal, replicate 2: 1.73e7; outcome: inactive

Looked up above:
Entry of TTLL1A (Tubulin tyrosine ligase-like 1A) [DRSC20121] under “resting calcium signal, replicate 1”: 1.45e7
Entry of CG7568 [DRSC16259] under “resting calcium signal, replicate 2”: 2.08e7
